Patent publication US20210147847
The comparison behind a weaker result is the experiment's own reference, which may not be listed here.

System: human IgG1 Fc (Homo sapiens)
Assay: filter binding
Details: low binding to Fc tag; 500 nM protein, 37 C; purified recombinant protein; label: 5'-32P or 5'-ATTO 647N; single-stranded DNA

“GCTGTGTGACTCCTGCAATGCAATCTAGCTGACAATGGGGGGGAAGAATGTGGGTGGGTGGCAGCTGTATCTTGTCTCC [CTL #5]”: binds more weakly.
